This experiment is described as follows: qHTS Assay for Lipid Storage Modulators in Drosophila S3 Cells.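 As to cell number change: cells counted by Cell Tracker Red CMTPX staining in the red channel.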 Particulars: BODIPY lipid droplet fluorescence, 18-24 h; for cell number change: measured here: cell count max response, cells fed with added oleic acid. The gist of the method:
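Drosophila S3 cells loaded with oleic acid (400 uM, as added) and compounds at several concentrations; lipid droplets imaged by 488-nm laser-scanning cytometry, 500–530 nm intensity and object ratio to cell channel. Percent activity normalized to 20 uM Triacsin C.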

Setting [1] is: measured here: lipid fluorescence (Fed channel) AC50, cells fed with added oleic acid.
[2] abbreviates: measured here: cell number channel AC50, cells fed with added oleic acid.

SMILES strings stand for the structures. This is one part of the list. Shown are side measurements of this screen, not its main read-out; they come without a call. Compounds called inactive in the main read-out are mostly missing here. The note in brackets gives the kind of curve behind each potency; many fits are weak.

Consider `CNc1cc(C)nc(-n2nc(C)cc2C)n1`, for which the cell number change was -0.4%. Further, the AC50 under setting [1] is 0.00731 µM [falling, full curve, poor fit].

`CCC(C)[C@@H](C(=O)NCC1CCC(C(=O)O)CC1)n1nnc2ccccc2c1=O` (some centres undefined): the cell number change worked out at 2.7%. Besides, the concentration at half-maximal activity (AC50) under setting [1] was 29.1 µM [rising, single point].

As for `Cc1cc(NC(=O)c2cc3n(n2)C(C(F)(F)F)CC(c2ccco2)N3)no1` (centres undefined), the AC50 is 3.66 µM [rising, partial curve] under setting [2] and 2.59 µM [rising, partial curve] under setting [1].

As for `CC(=O)c1sc(NC(=O)C2=NN(c3ccccc3)C(=O)CC2)nc1C`, the cell number change was -34.7%. With `Cc1nc2ccc(Cl)cc2nc(C)/c1=N\O`, the cell number change came to 6.38%. Take `CCOC(=O)/C(=N\Nc1ccccc1Cl)N(C)C1CCCCC1`: the cell number change was -1.59%.

As to `CCOC(=O)c1ccc(NC(=O)c2cnccn2)cc1`, the cell number change worked out at 12.9%. Moreover, under setting [1], the AC50 was 4.61 µM [rising, full curve, poor fit]. `Cc1ccc2nc(N3CCC(C(=O)O)CC3)nc(-c3ccccc3)c2c1`: the cell number change stood at 5.51%. Besides, under setting [1], the AC50 is 11.6 µM [rising, partial curve]. Regarding `C[N+](C)(C)CC(=O)N/N=C/c1c2ccccc2cc2ccccc12`, the cell number change is -9.44%. Also, the AC50 under setting [1] was 0.58 µM [rising, single point]. Turning to `CN(C)C(CNC(=O)c1ccc(S(=O)(=O)N(C)C)cc1)Cc1ccccc1` (centres undefined), the cell number change came out at 12.2%. Besides, the half-maximal activity concentration (AC50) under setting [2] was 0.058 µM [rising, full curve, poor fit]. Take `Oc1ccc(Nc2nc(-c3cccs3)cs2)cc1`: the cell number change is -9.16%. The AC50 under setting [1] was 18.4 µM [falling, single point]. On to `Cc1cc(-c2ccccc2)nc(N/N=C/c2ccc(O)cc2O)n1`, for which the cell number change was -65.4%. The AC50 under setting [2] is 11.6 µM [falling, partial curve, poor fit]. For the compound `COCCCNC(=O)/C(C#N)=C/c1cc(C)[nH]c1C`, the cell number change was -39%. For the same compound, the concentration at half-maximal activity (AC50) under setting [2] is 29.1 µM [falling, single point].

For `c1ccc(N2CCN(c3nc4cc5c(cc4s3)OCO5)CC2)cc1`, the concentration at half-maximal activity (AC50) under setting [1] was 0.13 µM [rising, full curve, poor fit]. As for `C(#CC1CCCCC1)c1ccc2c(c1)COc1c3ccccc3nn1-2`, the cell number change came out at 8.39%. Under setting [1], the AC50 is 4.11 µM [rising, full curve]. For the compound `O=S(=O)(/C=C/c1ccccc1)NCc1ccccc1Cl`, the cell number change is -2.83%. The half-maximal activity concentration (AC50) under setting [1] was 29.1 µM [rising, single point].

For `Cn1cc(S(=O)(=O)NCc2ccco2)c(=O)n(C)c1=O`, the cell number change was -43.5%. Also, the AC50 under setting [2] is 8.2 µM [falling, full curve]. For the same compound, under setting [1], the AC50 was 10.3 µM [falling, partial curve].

In the case of `COc1ccc(OC)c(C(C(=O)NC2CCCCC2)N(Cc2ccco2)C(=O)c2ccccn2)c1` (centres undefined), the cell number change stood at 2.94%. For the same compound, the AC50 under setting [1] was 5.8 µM [rising, full curve]. On to `COc1ccc(/C=C(\NC(=O)c2ccco2)C(=O)Nc2ccc(C(C)=O)cc2)cc1`, for which the cell number change is -6.23%. The AC50 under setting [1] is 18.4 µM [rising, partial curve].

As to `CC(C)c1ccc(CN2C(=O)NC3(CCCCCC3)C2=O)cc1`, the AC50 under setting [1] is 29.1 µM [falling, single point]. Consider `COc1ccc(/C=C(\NC(=O)c2ccccc2)C(=O)NCc2ccco2)cc1OC`, for which the cell number change is -17.1%.

Consider `O=C(O)c1cccnc1Nc1cccc(C(F)(F)F)c1`, for which the cell number change is -7.34%. Moreover, the half-maximal activity concentration (AC50) under setting [1] is 7.31 µM [falling, single point]. Regarding `CCN(CC)C(=O)Oc1ccnc2cc(Cl)ccc12`, the cell number change is -10.4%. Under setting [1], the half-maximal activity concentration (AC50) is 14.6 µM [falling, single point]. With `NC(=O)C[N+]1(CC#CC(O)(c2ccccc2)c2ccccc2)CCCC1`, the cell number change was found to be 37.8%. Besides, the AC50 under setting [2] was 14.6 µM [rising, partial curve, poor fit]. Also, the half-maximal activity concentration (AC50) under setting [1] was 13 µM [rising, partial curve, poor fit].

Consider `CCCCNC(=O)C(c1ccc(OCC(=O)OC)c(C(=O)OC)c1)N(CCc1c[nH]c2ccccc12)C(=O)CCCCCN1C(=O)NC(c2ccc(-c3ccccc3)cc2)C(C(=O)OCc2ccccc2)=C1C` (centres undefined), for which the cell number change is 10.8%. In addition, the concentration at half-maximal activity (AC50) under setting [1] is 1.84 µM [rising, full curve, poor fit]. In the case of `O=C(c1ccccc1)c1ccc(C(=O)N2CCOCC2)cc1`, the cell number change stood at 4.27%.

Consider `CC(C)CN(C(=O)COC(=O)c1cc2ccccc2oc1=O)C1CCS(=O)(=O)C1` (centres undefined), for which the cell number change was 1.49%. Moreover, under setting [1], the AC50 is 0.00517 µM [falling, full curve, poor fit]. In the case of `COc1ccc(NC(=O)Cn2nnc(C(N)=O)c2N)c(OC)c1`, the cell number change is -14.4%. The AC50 under setting [1] is 29.1 µM [falling, single point]. As to `COc1cccc(CNC(=O)Cc2ccc(-c3ccccc3)cc2)c1`, the cell number change came out at 11.5%. On to `CNC(=S)NC1(C)CCS(=O)(=O)C1` (centres undefined), for which the cell number change was -17.8%. For the same compound, the AC50 under setting [1] was 0.82 µM [falling, full curve, poor fit]. As for `COc1ccc(CN2CC(C(=O)NCc3ccc4c(c3)OCO4)CC2=O)cc1` (centres undefined), the cell number change was 10.6%. Under setting [1], the AC50 was 0.82 µM [falling, full curve, poor fit]. As to `CCNC(=O)Nc1ccc(OC)cc1OC`, the cell number change was -22.2%. For the compound `CC1(C)CC(=O)c2c(oc3cc(O)c(O)cc23)C1`, the cell number change was -17%. Moreover, under setting [2], the AC50 was 6.51 µM [falling, single point]. Regarding `CSc1cc(-c2ccccc2)n(Cc2ccccc2Cl)c(=O)c1C#N`, the half-maximal activity concentration (AC50) under setting [2] was 1.84 µM [rising, partial curve]. Regarding `Cc1ccc(-n2ncc(Cl)c2C(=O)NCc2ccccc2)cc1`, the cell number change turned out to be 3.98%. The AC50 under setting [1] was 6.51 µM [rising, single point]. On to `O=C(N/N=C/c1ccc[nH]1)c1cc(-c2cccs2)nc2ccccc12`, for which the cell number change was -33.4%. In the case of `Cc1cc(NC(=O)CCCN2C(=O)c3cccc4cccc(c34)C2=O)no1`, the cell number change worked out at 32%. Moreover, the AC50 under setting [1] is 32.6 µM [rising, partial curve].

On to `CCOc1cccc(NC(=O)C2CCCN(S(=O)(=O)c3ccc(OC)cc3)C2)c1` (centres undefined), for which the concentration at half-maximal activity (AC50) under setting [1] was 7.31 µM [falling, partial curve].

For `COc1ccc(S(=O)(=O)N2CCCC(C(=O)Nc3ccc(NC(=O)c4ccccn4)cc3)C2)cc1` (centres undefined), the cell number change was -8.81%.

Take `Cc1ccc(Oc2coc3cc(O)ccc3c2=O)cc1`: the cell number change is -16.1%. As for `CCN(CC)S(=O)(=O)c1ccc(NC(=O)c2cnc(C)cn2)cc1`, the cell number change came out at 1.46%. Turning to `c1ccc(-c2c3ccccc3nc3[nH]c4ccccc4c23)cc1`, the cell number change is -15.9%. Besides, the AC50 under setting [1] was 4.61 µM [rising, partial curve]. With `CN(c1ccccc1)c1ccc(/C=N/N2CCOCC2)cc1`, the cell number change was 45.7%. Further, the AC50 under setting [2] is 29.1 µM [rising, single point]. Also, the half-maximal activity concentration (AC50) under setting [1] is 6.51 µM [rising, single point].

(Values after PubChem BioAssay AID2685 (National Center for Advancing Translational Sciences (NCATS), 2010).)
